From publication PMC12669040, “Tumour-specific STING agonist synthesis via a two-component prodrug system” (Nature Chemistry, 2025)
“And” between values parts separate entries of the source, which are not always exact repeats. Identical values can stand only once. This continues a long series; more values of the same kind are listed elsewhere.

Assay: Colorimetric alkylation rate constant assay with TNB^2− as non-specific thiol
Type: physicochemical
Conditions: in µM
[1] = Replicate 1, 181 sec, [B]0 = 250
[2] = Replicate 1, 362 sec, [B]0 = 250
[3] = Replicate 1, 542 sec, [B]0 = 250
[4] = Time 3613 sec, [B]0 = 250, Replicates 1-3
[5] = Time 3794 sec, [B]0 = 250, Replicates 1-3
[6] = Time 3974 sec, [B]0 = 250, Replicates 1-3
[7] = Time 4155 sec, [B]0 = 250, Replicates 1-3
[8] = Time 4336 sec, [B]0 = 250, Replicates 1-3
[9] = Time 4516 sec, [B]0 = 250, Replicates 1-3
[10] = Time 4697 sec, [B]0 = 250, Replicates 1-3
[11] = Time 4878 sec, [B]0 = 250, Replicates 1-3
[12] = Time 5058 sec, [B]0 = 250, Replicates 1-3
[13] = Time 5239 sec, [B]0 = 250, Replicates 1-3
[14] = Time 5419 sec, [B]0 = 250, Replicates 1-3
[15] = Time 5600 sec, [B]0 = 250, Replicates 1-3
[16] = Time 5781 sec, [B]0 = 250, Replicates 1-3
[17] = Time 5961 sec, [B]0 = 250, Replicates 1-3

SMILES	remaining [B] (Replicate 1, 0 sec, [B]0 = 250)	remaining [B] [1]	remaining [B] [2]	remaining [B] [3]	remaining [B] (Replicate 2, 0 sec, [B]0=250)	remaining [B] (Replicate 2, 181 sec, [B]0=250)	remaining [B] (Replicate 2, 362 sec, [B]0=250)	remaining [B] (Replicate 3, 0 sec, [B]0=250)	remaining [B] (Replicate 3, 181 sec, [B]0=250)	remaining [B] (Replicate 3, 362 sec, [B]0=250)	remaining [B] (Replicate 3, 542 sec, [B]0=250)	remaining [B] [4]	remaining [B] [5]	remaining [B] [6]	remaining [B] [7]	remaining [B] [8]	remaining [B] [9]	remaining [B] [10]	remaining [B] [11]	remaining [B] [12]	other results
O=C(CCl)Nc1ccccc1C(=O)O [Compound C5]	248.01	247.342	246.913	246.561	246.579	245.772	245.81	247.947	245.061	245.301	245.427	245.023 and 244.122	244.204 and 244.897 and 244.071	244.116 and 244.847 and 243.983	244.003 and 244.721 and 243.908	243.927 and 244.658 and 243.807	243.914 and 244.494 and 243.731	243.788 and 244.532 and 243.655	243.751 and 244.456 and 243.58	243.625 and 244.318 and 243.492	remaining [B] [13]: 243.574 and 244.229 and 243.403; remaining [B] [14]: 243.499 and 244.166 and 243.353; remaining [B] [15]: 243.41 and 244.078 and 243.252; remaining [B] [16]: 243.322 and 244.015 and 243.151; remaining [B] [17]: 243.259 and 243.889 and 243.088
C=CS(=O)(=O)Nc1cc2cc(C(=O)CCC(=O)O)sc2cc1OC [Compound E1]	250.574	249.503	248.394	247.714	250.164	248.967	248.337	250.498	249.377	249.389	248.734	239.977 and 241.242	241.123 and 239.876 and 240.764	240.443 and 239.12 and 240.562	240.355 and 239.032 and 240.033	240.077 and 238.427 and 239.68	239.624 and 238.061 and 239.39	239.208 and 237.608 and 239.126	238.868 and 237.457 and 238.785	238.502 and 237.053 and 238.395	remaining [B] [13]: 238.414 and 236.6 and 237.991; remaining [B] [14]: 237.86 and 236.322 and 237.525; remaining [B] [15]: 237.482 and 235.831 and 237.324; remaining [B] [16]: 237.104 and 235.466 and 236.958; remaining [B] [17]: 236.574 and 235.05 and 236.53
O=C(CCl)N1CCOCC1 [Compound C4]	246.888	246.132	244.91	244.091	244.336	243.378	242.799	246.258	244.557	244.066	243.788	232.372 and 230.815	231.666 and 231.679 and 230.16	231.011 and 231.049 and 229.543	230.369 and 230.343 and 228.938	229.751 and 229.713 and 228.32	229.146 and 229.045 and 227.678	228.529 and 228.415 and 227.06	227.911 and 227.798 and 226.493	227.332 and 227.181 and 225.888	remaining [B] [13]: 226.664 and 226.551 and 225.233; remaining [B] [14]: 226.072 and 225.983 and 224.679; remaining [B] [15]: 225.53 and 225.341 and 224.099; remaining [B] [16]: 224.938 and 224.736 and 223.494; remaining [B] [17]: 224.383 and 224.106 and 222.952
COc1cc2sc(C(=O)CCC(=O)O)cc2cc1NC(=O)CCl [Compound E2]	245.124	244.418	244.129	243.864	244.701	244.084	244.008	243.221	242.818	243.032	242.717	238.773 and 238.993	237.526 and 238.572 and 238.666	237.299 and 238.294 and 238.439	237.022 and 238.068 and 238.187	236.77 and 237.677 and 237.884	236.505 and 237.4 and 237.582	236.241 and 237.135 and 237.405	236.052 and 236.934 and 237.103	235.724 and 236.719 and 236.826	remaining [B] [13]: 235.485 and 236.43 and 236.549; remaining [B] [14]: 235.207 and 236.165 and 236.309; remaining [B] [15]: 235.006 and 235.875 and 236.057; remaining [B] [16]: 234.716 and 235.636 and 235.755; remaining [B] [17]: 234.376 and 235.321 and 235.503
O=C(CCl)Nc1ccc(F)cc1 [Compound C3]	247.134	246.277	245.534	244.904	246.132	245.552	245.262	247.789	245.37	245.332	245.231	239.334 and 239.579	239.485 and 239.032 and 239.289	239.258 and 238.742 and 238.949	238.893 and 238.528 and 238.684	238.628 and 238.112 and 238.357	238.301 and 237.772 and 238.054	237.898 and 237.494 and 237.739	237.671 and 237.28 and 237.462	237.343 and 236.927 and 237.223	remaining [B] [13]: 237.041 and 236.688 and 236.845; remaining [B] [14]: 236.877 and 236.297 and 236.58; remaining [B] [15]: 236.436 and 236.033 and 236.29; remaining [B] [16]: 236.222 and 235.743 and 235.95; remaining [B] [17]: 235.881 and 235.403 and 235.673
O=C(CCl)Nc1ccccc1 [Compound C2]	245.849	245.382	245.017	244.349	246.774	246.22	245.817	247.399	246.491	246.063	245.723	238.691 and 239.856	239.687 and 238.364 and 239.504	239.498 and 238.061 and 239.201	239.095 and 237.809 and 238.886	238.691 and 237.406 and 238.584	238.439 and 237.116 and 238.243	238.175 and 236.826 and 237.979	237.835 and 236.511 and 237.651	237.494 and 236.259 and 237.273	remaining [B] [13]: 237.217 and 235.932 and 237.034; remaining [B] [14]: 237.003 and 235.68 and 236.656; remaining [B] [15]: 236.587 and 235.34 and 236.379; remaining [B] [16]: 236.209 and 235.075 and 236.064; remaining [B] [17]: 235.944 and 234.71 and 235.736
